We go through one sequence from PMC11040006, “Molecular basis of an atypical dsDNA 5mC/6mA bifunctional dioxygenase CcTet from Coprinopsis cinerea in catalyzing dsDNA 5mC demethylation” (Nucleic Acids Research, 2024).

For at least one entry, the source does not settle the construct or the ends of the probe. At least one verdict was read from the data and is not stated in words by the source. Where a protein sequence is shown, tags need not be part of it.

This data set deals with T1, CcTet-ΔN16 (Coprinopsis cinerea) (UniProt A8P1J0).
T1 sequence (looked up, limits assumed): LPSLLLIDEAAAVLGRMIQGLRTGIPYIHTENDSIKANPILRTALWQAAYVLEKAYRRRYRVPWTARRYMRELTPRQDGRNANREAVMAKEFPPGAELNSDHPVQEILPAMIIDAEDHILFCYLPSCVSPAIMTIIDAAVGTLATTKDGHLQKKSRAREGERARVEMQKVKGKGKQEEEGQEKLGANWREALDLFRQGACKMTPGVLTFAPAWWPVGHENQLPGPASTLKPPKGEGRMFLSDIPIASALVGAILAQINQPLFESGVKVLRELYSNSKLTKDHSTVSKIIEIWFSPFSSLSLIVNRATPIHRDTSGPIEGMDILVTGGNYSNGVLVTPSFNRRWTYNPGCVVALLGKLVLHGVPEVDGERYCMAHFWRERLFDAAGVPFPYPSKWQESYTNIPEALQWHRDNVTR
Description: MST. As to conditions: 5mC at position 8 of strand 1; MST: NT-495 labeled protein, room temperature, 5 min incubation, buffer not stated (protein gel-filtration buffer 20 mM HEPES pH 7.0, 100 mM NaCl, 1 mM DTT); recombinant protein; protein details: N-terminal His-Sumo1, removed by Ulp1.

As to “TCTGGAACGGAATTCTTCA (double strand) [19-bp 5mC-dsDNA]”, the binding result is given as “binds”.
